B1: WTred: wild-type human Ngb with reduced cysteines, both heme isomers (protein, UniProt Q9NPG2 1-151, looked up)
Neuroglobin: MERPEPELIRQSWRAVSRSPLEHGTVLFARLFALEPDLLPLFQYNCRQFSSPEDCLSSPEFLDHIRKVMLVIDAAVTNVEDLSSLEEYLASLGRKHRAVGVKLSSFSTVGESLLYMLEKCLGPAFTPATRAAWSQLYGAVVQAMSRGWDGE
modifications: reduced cysteines
notes: wild-type human Ngb with reduced cysteines, both heme isomers
For B1, the “ratio k obs^A/k obs^B of on-rate values” (A isomer versus B isomer) was found to be 2.2. The “ratio K d,B/K d,A” value (B isomer versus A isomer) is 2.1.

The values are drawn from publication PMC3535368, “Heme orientation modulates histidine dissociation and ligand binding kinetics in the hexacoordinated human neuroglobin” (Journal of Biological Inorganic Chemistry, 2012).
